The list shows a part of the results.
Key:
Assay in all cases: log2 fold change, soluble protein after heating vs DMSO (PISA); higher = thermal stabilisation; K562 cells, 10 uM, 30 min; active = over 0.2 and 3.5 SD of the protein, either way, in both replicates (recomputed)
saracatinib = compound: CN1CCN(CCOc2cc(OC3CCOCC3)c3c(Nc4c(Cl)ccc5c4OCO5)ncnc3c2)CC1 [saracatinib]
How it was run: (§1)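 K562 cells at 2×10^6 cells/mL were given 10 μM compound for 30 min. Aliquots then went through 3 min of heating across 48°C-58°C, were pooled, and were extracted in PBS with 0.5% NP-40 at 4°C, and the supernatant after 21,000xg for 90 min was quantified by TMTpro 16plex LC-MS/MS with channel sums equalised. Thermal stability relative to control samples, from duplicates, is given as log2 fold change.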

Amino acid sequences for entries named in this document (tags omitted). A change or cut given only in a name is not applied to a line headed by its entry.
UniProt P47736: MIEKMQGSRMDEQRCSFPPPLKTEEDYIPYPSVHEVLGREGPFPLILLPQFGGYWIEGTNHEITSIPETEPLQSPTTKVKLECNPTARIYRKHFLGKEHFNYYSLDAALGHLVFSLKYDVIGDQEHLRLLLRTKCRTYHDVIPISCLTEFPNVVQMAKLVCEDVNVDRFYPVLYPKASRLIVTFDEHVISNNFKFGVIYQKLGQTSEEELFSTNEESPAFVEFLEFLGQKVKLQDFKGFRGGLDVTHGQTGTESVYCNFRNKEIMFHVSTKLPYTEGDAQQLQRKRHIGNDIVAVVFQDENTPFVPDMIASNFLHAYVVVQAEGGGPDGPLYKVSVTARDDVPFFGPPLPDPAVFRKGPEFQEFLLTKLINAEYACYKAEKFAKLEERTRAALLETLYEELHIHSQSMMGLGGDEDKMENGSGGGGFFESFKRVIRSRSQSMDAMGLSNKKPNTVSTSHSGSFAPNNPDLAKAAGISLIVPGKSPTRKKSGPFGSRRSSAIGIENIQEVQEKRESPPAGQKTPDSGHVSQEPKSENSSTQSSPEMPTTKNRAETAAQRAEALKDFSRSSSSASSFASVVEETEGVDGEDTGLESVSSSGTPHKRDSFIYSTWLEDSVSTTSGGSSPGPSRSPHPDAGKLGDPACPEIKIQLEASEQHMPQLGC
UniProt Q13637: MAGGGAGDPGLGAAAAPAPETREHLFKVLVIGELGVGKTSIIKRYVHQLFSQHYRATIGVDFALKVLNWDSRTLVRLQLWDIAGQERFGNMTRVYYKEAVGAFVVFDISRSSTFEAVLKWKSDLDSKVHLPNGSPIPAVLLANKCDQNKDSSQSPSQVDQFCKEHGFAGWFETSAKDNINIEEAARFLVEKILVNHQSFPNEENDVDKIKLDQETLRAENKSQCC
UniProt Q9BTL3: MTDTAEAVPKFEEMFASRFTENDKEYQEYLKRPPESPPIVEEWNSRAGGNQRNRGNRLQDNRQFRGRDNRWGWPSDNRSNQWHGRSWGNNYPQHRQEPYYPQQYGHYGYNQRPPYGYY
UniProt P20336: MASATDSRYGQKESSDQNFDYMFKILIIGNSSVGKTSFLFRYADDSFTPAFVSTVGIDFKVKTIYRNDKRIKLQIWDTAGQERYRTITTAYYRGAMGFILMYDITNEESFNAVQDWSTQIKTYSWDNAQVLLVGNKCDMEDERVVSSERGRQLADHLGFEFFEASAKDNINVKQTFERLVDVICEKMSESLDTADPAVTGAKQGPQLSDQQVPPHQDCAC
UniProt Q9BUV8: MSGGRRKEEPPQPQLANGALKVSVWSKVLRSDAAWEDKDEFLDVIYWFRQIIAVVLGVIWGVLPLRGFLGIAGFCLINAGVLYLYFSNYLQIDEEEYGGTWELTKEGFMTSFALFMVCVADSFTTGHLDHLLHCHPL
UniProt Q5T8P6: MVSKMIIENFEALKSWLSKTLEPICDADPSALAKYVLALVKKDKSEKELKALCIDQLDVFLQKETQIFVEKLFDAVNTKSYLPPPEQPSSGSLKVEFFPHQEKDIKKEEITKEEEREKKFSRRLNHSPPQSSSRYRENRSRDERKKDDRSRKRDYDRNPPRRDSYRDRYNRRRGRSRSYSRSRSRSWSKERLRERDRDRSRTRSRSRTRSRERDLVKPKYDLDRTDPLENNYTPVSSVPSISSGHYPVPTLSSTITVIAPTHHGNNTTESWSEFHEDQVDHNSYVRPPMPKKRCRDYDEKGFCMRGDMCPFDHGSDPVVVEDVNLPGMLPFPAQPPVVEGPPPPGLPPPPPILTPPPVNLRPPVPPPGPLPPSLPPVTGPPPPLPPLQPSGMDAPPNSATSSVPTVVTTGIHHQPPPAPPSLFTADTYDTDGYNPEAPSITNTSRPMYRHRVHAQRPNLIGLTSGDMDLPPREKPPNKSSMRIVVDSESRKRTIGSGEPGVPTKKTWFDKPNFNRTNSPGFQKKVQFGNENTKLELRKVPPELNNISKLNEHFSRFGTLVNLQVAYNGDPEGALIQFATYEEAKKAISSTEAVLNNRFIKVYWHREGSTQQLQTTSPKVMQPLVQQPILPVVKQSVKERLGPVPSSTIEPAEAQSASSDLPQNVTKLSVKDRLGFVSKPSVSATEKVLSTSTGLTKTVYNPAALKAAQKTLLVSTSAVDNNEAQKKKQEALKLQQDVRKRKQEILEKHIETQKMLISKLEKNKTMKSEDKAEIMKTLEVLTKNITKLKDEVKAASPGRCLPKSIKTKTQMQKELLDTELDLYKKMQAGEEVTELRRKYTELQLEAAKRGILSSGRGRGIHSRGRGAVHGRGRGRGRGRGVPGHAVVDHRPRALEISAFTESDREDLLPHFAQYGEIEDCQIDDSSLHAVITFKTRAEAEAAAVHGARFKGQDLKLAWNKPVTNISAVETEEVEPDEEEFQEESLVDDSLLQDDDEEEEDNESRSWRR
UniProt Q96PK6: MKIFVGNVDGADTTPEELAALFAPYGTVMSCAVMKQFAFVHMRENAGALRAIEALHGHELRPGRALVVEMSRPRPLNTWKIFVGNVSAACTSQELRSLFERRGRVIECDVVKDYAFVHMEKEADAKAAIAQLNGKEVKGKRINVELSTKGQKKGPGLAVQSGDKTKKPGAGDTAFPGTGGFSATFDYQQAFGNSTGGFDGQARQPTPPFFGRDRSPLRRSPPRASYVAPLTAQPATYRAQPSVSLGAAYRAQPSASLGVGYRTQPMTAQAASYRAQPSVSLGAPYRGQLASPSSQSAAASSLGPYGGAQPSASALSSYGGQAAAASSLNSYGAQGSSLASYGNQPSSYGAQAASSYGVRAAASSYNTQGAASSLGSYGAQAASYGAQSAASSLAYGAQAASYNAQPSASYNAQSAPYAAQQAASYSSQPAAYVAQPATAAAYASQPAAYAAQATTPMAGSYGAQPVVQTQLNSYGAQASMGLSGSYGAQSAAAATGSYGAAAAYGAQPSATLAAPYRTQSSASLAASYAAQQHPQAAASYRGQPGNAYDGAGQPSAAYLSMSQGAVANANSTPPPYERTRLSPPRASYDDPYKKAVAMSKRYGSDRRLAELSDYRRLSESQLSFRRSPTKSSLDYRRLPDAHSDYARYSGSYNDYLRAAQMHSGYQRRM
UniProt Q9H082: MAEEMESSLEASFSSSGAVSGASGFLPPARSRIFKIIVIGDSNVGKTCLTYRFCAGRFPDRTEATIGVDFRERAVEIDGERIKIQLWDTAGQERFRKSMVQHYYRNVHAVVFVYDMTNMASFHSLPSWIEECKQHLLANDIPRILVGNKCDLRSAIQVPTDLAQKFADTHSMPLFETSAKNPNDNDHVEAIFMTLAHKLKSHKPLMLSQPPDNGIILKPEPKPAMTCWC
UniProt Q9BYM8: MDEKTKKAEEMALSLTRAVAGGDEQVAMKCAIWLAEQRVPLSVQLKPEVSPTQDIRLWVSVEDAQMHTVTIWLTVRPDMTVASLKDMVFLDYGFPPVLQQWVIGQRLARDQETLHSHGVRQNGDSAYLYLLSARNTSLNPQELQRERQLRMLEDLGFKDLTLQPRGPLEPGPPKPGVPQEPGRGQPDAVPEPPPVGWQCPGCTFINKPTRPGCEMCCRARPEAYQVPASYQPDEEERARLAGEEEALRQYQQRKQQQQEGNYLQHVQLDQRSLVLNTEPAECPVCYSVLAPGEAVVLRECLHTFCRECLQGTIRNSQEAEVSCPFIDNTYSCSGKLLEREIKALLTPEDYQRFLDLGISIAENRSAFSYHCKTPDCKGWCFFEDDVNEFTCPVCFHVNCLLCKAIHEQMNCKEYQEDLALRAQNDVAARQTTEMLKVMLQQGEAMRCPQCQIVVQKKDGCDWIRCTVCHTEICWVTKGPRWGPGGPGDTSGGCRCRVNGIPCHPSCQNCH

sotrastaurin = compound: CN1CCN(c2nc(C3=C(c4c[nH]c5ccccc45)C(=O)NC3=O)c3ccccc3n2)CC1 [sotrastaurin]
How it was run: as §1

alvocidib = compound: CN1CC[C@H](c2c(O)cc(O)c3c(=O)cc(-c4ccccc4Cl)oc23)[C@H](O)C1 [alvocidib]
How it was run: as §1

Tubastatin A = compound: CN1CCc2c(c3ccccc3n2Cc2ccc(C(=O)NO)cc2)C1 [Tubastatin A]
How it was run: as §1

[1] = compound: CNC(=O)C1=CC=CC=C1NC2=NC(=NC=C2Cl)NC3=C(C=C(C=C3)N4CCOCC4)OC
How it was run: as §1

defactinib = compound: CNC(=O)c1ccc(Nc2ncc(C(F)(F)F)c(NCc3nccnc3N(C)S(C)(=O)=O)n2)cc1 [defactinib]
How it was run: as §1

[2] = compound: CNc1nc(-c2ccc3c(N)n[nH]c3c2)cc(N2C[C@@H](C(=O)NC3CCCCC3)CC[C@H]2C)n1
How it was run: as §1

[3] = compound: COC(=O)[C@H](CCSC)NC(=O)C1=C(C=C(C=C1)NC[C@H](CS)N)C2=CC=CC=C2
How it was run: as §1

[4] = compound: COC1=CC=C(C=C1)CN2C=CC3=C2C=C(C=C3)C(=O)NO
How it was run: as §1

filanesib = compound: CON(C)C(=O)N1N=C(c2cc(F)ccc2F)S[C@@]1(CCCN)c1ccccc1 [filanesib]
How it was run: as §1

zotarolimus = compound: CO[C@H]1C[C@@H]2CC[C@@H](C)[C@@](O)(O2)C(=O)C(=O)N2CCCC[C@H]2C(=O)O[C@H]([C@H](C)C[C@@H]2CC[C@H](n3cnnn3)[C@H](OC)C2)CC(=O)[C@H](C)/C=C(\C)[C@@H](O)[C@@H](OC)C(=O)[C@H](C)C[C@H](C)/C=C/C=C/C=C/1C [zotarolimus]
How it was run: as §1

idasanutlin = compound: COc1cc(C(=O)O)ccc1NC(=O)[C@@H]1N[C@@H](CC(C)(C)C)[C@](C#N)(c2ccc(Cl)cc2F)[C@H]1c1cccc(Cl)c1F [idasanutlin]
How it was run: as §1

alisertib = compound: COc1cc(Nc2ncc3c(n2)-c2ccc(Cl)cc2C(c2c(F)cccc2OC)=NC3)ccc1C(=O)O [alisertib]
How it was run: as §1

[5] = compound: COc1cc2nc(-c3cc(F)ccc3O)nc(N[C@@H]3CNC[C@H]3C(C)(C)O)c2cc1OC
How it was run: as §1

gefitinib = compound: COc1cc2ncnc(Nc3ccc(F)c(Cl)c3)c2cc1OCCCN1CCOCC1 [gefitinib]
How it was run: as §1

[6] = compound: COc1cccc2cc(-c3nc([C@H]4CC[C@H](C(=O)O)CC4)n4ncnc(N)c34)[nH]c12
How it was run: as §1

lapatinib = compound: CS(=O)(=O)CCNCc1ccc(-c2ccc3ncnc(Nc4ccc(OCc5cccc(F)c5)c(Cl)c4)c3c2)o1 [lapatinib]
How it was run: as §1

pictilisib = compound: CS(=O)(=O)N1CCN(Cc2cc3nc(-c4cccc5[nH]ncc45)nc(N4CCOCC4)c3s2)CC1 [pictilisib]
How it was run: as §1

rucaparib = compound: CNCc1ccc(-c2[nH]c3cc(F)cc4c3c2CCNC4=O)cc1 [rucaparib]
How it was run: as §1

encorafenib = compound: COC(=O)N[C@@H](C)CNc1nccc(-c2cn(C(C)C)nc2-c2cc(Cl)cc(NS(C)(=O)=O)c2F)n1 [encorafenib]
How it was run: as §1

Measured: log2 fold change

RAP1GAP isoform 4 (UniProt P47736)
inactive: saracatinib 0.025 | sotrastaurin -0.171 | alvocidib -0.178 | Tubastatin A 0.017 | [1] 0.022 | defactinib -0.129 | [2] 0.086 | [3] -0.089 | [4] -0.237 | filanesib -0.106 | zotarolimus 0.058 | idasanutlin 0.112 | alisertib 0.04 | [5] -0.152 | gefitinib 0.023 | [6] -0.183 | lapatinib 0.05 | pictilisib 0.053

RAB32 (UniProt Q13637)
inactive: saracatinib 0.147 | sotrastaurin 0.02 | alvocidib -0.051 | Tubastatin A -0.036 | [1] -0.025 | defactinib -0.013 | rucaparib 0 | [2] -0.011 | encorafenib 0.002 | [3] -0.028 | [4] -0.12 | filanesib -0.029 | zotarolimus -0.006 | idasanutlin -0.065 | alisertib 0.014 | [5] -0.037 | gefitinib 0.02 | [6] 0.07 | lapatinib 0.038 | pictilisib -0.011

RAMAC (UniProt Q9BTL3)
inactive: saracatinib -0.008 | sotrastaurin 0.016 | alvocidib 0.115 | Tubastatin A -0.007 | [1] 0.019 | defactinib 0.052 | rucaparib 0.138 | [2] -0.058 | encorafenib -0.018 | [3] -0.071 | [4] -0.055 | filanesib 0.064 | zotarolimus 0 | idasanutlin 0.028 | alisertib -0.07 | [5] -0.065 | gefitinib 0.012 | [6] -0.02 | lapatinib 0.108 | pictilisib -0.142

RAB3A (UniProt P20336)
inactive: saracatinib -0.007 | sotrastaurin -0.045 | alvocidib 0.021 | Tubastatin A -0.039 | [1] 0.004 | defactinib 0.017 | rucaparib -0.014 | [2] -0.184 | encorafenib -0.047 | [3] -0.005 | [4] 0.026 | filanesib 0.022 | zotarolimus -0.016 | idasanutlin 0.027 | alisertib -0.083 | [5] 0.047 | gefitinib 0.001 | [6] -0.051 | lapatinib 0.003 | pictilisib -0.018

RAB5IF isoform 5 (UniProt Q9BUV8)
inactive: saracatinib 0.114 | sotrastaurin -0.018 | Tubastatin A -0.139 | [1] -0.08 | defactinib -0.01 | rucaparib -0.014 | [2] -0.018 | encorafenib 0.08 | [3] 0.031 | filanesib -0.243 | zotarolimus -0.074 | idasanutlin -0.015 | alisertib -0.081 | [5] -0.021 | gefitinib 0.018 | [6] 0.002 | lapatinib 0.006 | pictilisib 0.006
active: [4] 0.429

Pulled one by one from above, two records:
RAB32 (UniProt Q13637)
inactive: saracatinib 0.147 | sotrastaurin 0.02 | alvocidib -0.051 | Tubastatin A -0.036 | [1] -0.025 | defactinib -0.013 | rucaparib 0 | [2] -0.011 | encorafenib 0.002 | [3] -0.028 | [4] -0.12 | filanesib -0.029 | zotarolimus -0.006 | idasanutlin -0.065 | alisertib 0.014 | [5] -0.037 | gefitinib 0.02 | [6] 0.07 | lapatinib 0.038 | pictilisib -0.011

RAMAC (UniProt Q9BTL3)
inactive: saracatinib -0.008 | sotrastaurin 0.016 | alvocidib 0.115 | Tubastatin A -0.007 | [1] 0.019 | defactinib 0.052 | rucaparib 0.138 | [2] -0.058 | encorafenib -0.018 | [3] -0.071 | [4] -0.055 | filanesib 0.064 | zotarolimus 0 | idasanutlin 0.028 | alisertib -0.07 | [5] -0.065 | gefitinib 0.012 | [6] -0.02 | lapatinib 0.108 | pictilisib -0.142

(list continues)

RBM26 isoform 2 (UniProt Q5T8P6)
inactive: saracatinib -0.01 | sotrastaurin -0.193 | Tubastatin A 0.094 | [1] -0.074 | rucaparib -0.039 | [2] 0.025 | encorafenib 0.03 | [3] -0.032 | [4] 0.086 | filanesib -0.071 | zotarolimus 0.03 | idasanutlin -0.025 | alisertib 0.093 | [5] -0.045 | gefitinib 0.064 | [6] 0.009 | lapatinib 0.034 | pictilisib 0.059
active: defactinib -0.489

RBM14 (UniProt Q96PK6)
inactive: saracatinib 0.039 | alvocidib -0.038 | Tubastatin A 0.128 | [1] 0.038 | defactinib -0.192 | rucaparib 0.185 | [2] -0.063 | encorafenib -0.045 | [3] 0.18 | [4] 0.154 | zotarolimus -0.057 | idasanutlin -0.02 | alisertib -0.002 | [5] -0.047 | [6] -0.101 | lapatinib -0.052 | pictilisib 0.004

RABGAP1L isoform 3 (UniProt Q5R372)
inactive: saracatinib 0.063 | sotrastaurin -0.042 | Tubastatin A -0.059 | [1] 0.018 | defactinib -0.055 | rucaparib -0.05 | [2] -0.005 | encorafenib 0.078 | [3] 0.035 | [4] -0.108 | filanesib -0.026 | zotarolimus -0.006 | idasanutlin -0.05 | alisertib -0.008 | [5] -0.025 | gefitinib 0.035 | [6] 0.033 | lapatinib 0.012 | pictilisib -0.066

RAD50, A0A494C0Y7
inactive: saracatinib -0.101 | sotrastaurin 0.048 | Tubastatin A -0.079 | defactinib -0.146 | rucaparib -0.206 | [2] 0.198 | encorafenib 0.15 | [3] -0.055 | [4] -0.054 | filanesib 0.001 | zotarolimus -0.021 | idasanutlin -0.05 | alisertib 0.127 | [5] -0.077 | [6] 0.035 | lapatinib -0.142 | pictilisib 0.085

RAB33B (UniProt Q9H082)
inactive: saracatinib 0.158 | sotrastaurin 0.057 | Tubastatin A 0.013 | [1] -0.01 | defactinib -0.005 | rucaparib 0.035 | [2] -0.031 | encorafenib 0 | [3] 0.032 | [4] -0.104 | filanesib -0.018 | zotarolimus -0.073 | idasanutlin 0.036 | alisertib 0.035 | [5] 0.039 | gefitinib 0.037 | [6] 0.087 | lapatinib 0.046 | pictilisib 0.106

RBCK1 (UniProt Q9BYM8)
inactive: saracatinib -0.094 | alvocidib 0.106 | Tubastatin A -0.102 | [1] -0.026 | defactinib -0.111 | [2] 0.018 | [3] -0.203 | zotarolimus 0.221 | idasanutlin -0.038 | [5] 0.142 | lapatinib -0.098

RAC1 (UniProt P63000)
active: [4] 0.474
inactive: saracatinib 0.097 | sotrastaurin -0.041 | Tubastatin A 0.057 | [1] -0.009 | defactinib -0.012 | rucaparib 0.075 | [2] 0.043 | encorafenib -0.064 | [3] -0.037 | filanesib -0.118 | zotarolimus 0.044 | idasanutlin 0.003 | alisertib -0.066 | [5] 0.02 | gefitinib 0.039 | [6] 0.006 | lapatinib 0.004 | pictilisib -0.094

Source: the supplement of paper PMC10849652
